Results deposited as PubChem BioAssay AID1224828 (NIAID, 2016).

- Test: 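Knock-downs that increase or decrease LPS-induced p65 nuclear translocation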 (primary screen)
- Cell system: mouse RAW264.7 G9 macrophage reporter cells (GFP-p65, Tnf promoter-mCherry)
- Reagents: siRNA pool against mouse genes, 100 nM
- Timing: 2 days siRNA transfection, then 40 min LPS before fixation
- Conditions: LPS (Salmonella minnesota R595) at 10 ng/ml
- Detection: 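Imaged p65 nuclear translocation ratio, normalised to the plate median, converted to robust z-scores and averaged across two replicates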
- Direction: p65 translocation robust z-score: higher = more nuclear NF-kappaB p65 after LPS than the plate median; nuclear/cytoplasmic p65 ratio: higher = more nuclear NF-kappaB p65
- Active means: 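Called active when z exceeds 3.3 or falls under -1.56 (median of Tlr4 controls), giving activity score of at least 50; no calls for control wells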
- Calls: active = hit (p65 shift raised or lowered); inactive = no clear change
The deposit covers about 17,000 reagents; below is a random part of them. In the full data, 762 (4.5%) got an active call. 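Active calls include both raised and lowered p65 entry, mostly lowered; wells with fewer than 50 cells lack a z-score.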 The raw values are shown without normalisation. A number with no mark means an inactive call.

What is on record for Adcy4 [SID315476416]?
p65 translocation robust z-score: -0.63; nuclear/cytoplasmic p65 ratio, rep 1: 1.49; nuclear/cytoplasmic p65 ratio, rep 2: 1.61; low cell count flag: enough cells to score

What did the screen give for Crygs [SID315466152]?
p65 translocation robust z-score: 0.64; nuclear/cytoplasmic p65 ratio, rep 1: 1.59; nuclear/cytoplasmic p65 ratio, rep 2: 1.44; low cell count flag: enough cells to score

With Dhrs7b [SID315478033], what does the deposit list?
p65 translocation robust z-score: 1.02; nuclear/cytoplasmic p65 ratio, rep 1: 1.65; nuclear/cytoplasmic p65 ratio, rep 2: 2.02; low cell count flag: enough cells to score

What did the screen give for Elovl7 [SID315475005]?
p65 translocation robust z-score: 0; nuclear/cytoplasmic p65 ratio, rep 1: 1.39; nuclear/cytoplasmic p65 ratio, rep 2: 1.43; low cell count flag: enough cells to score

For Pde7a [SID315468438], what does the deposit list?
p65 translocation robust z-score: -0.31; nuclear/cytoplasmic p65 ratio, rep 1: 1.4; nuclear/cytoplasmic p65 ratio, rep 2: 1.38; low cell count flag: enough cells to score

For Zfp24 [SID315471986], what does the deposit list?
p65 translocation robust z-score: -0.43; nuclear/cytoplasmic p65 ratio, rep 1: 1.45; nuclear/cytoplasmic p65 ratio, rep 2: 1.45; low cell count flag: enough cells to score

With Zmat4 [SID315481242], what was measured?
p65 translocation robust z-score: -2.09 (active); nuclear/cytoplasmic p65 ratio, rep 1: 1.17; nuclear/cytoplasmic p65 ratio, rep 2: 1.22; low cell count flag: enough cells to score

What is on record for Gys2 [SID315478995]?
p65 translocation robust z-score: -0.19; nuclear/cytoplasmic p65 ratio, rep 1: 1.39; nuclear/cytoplasmic p65 ratio, rep 2: 1.37; low cell count flag: enough cells to score

How did the screen score Farp2 [SID315478560]?
p65 translocation robust z-score: 0.37; nuclear/cytoplasmic p65 ratio, rep 1: 1.6; nuclear/cytoplasmic p65 ratio, rep 2: 1.34; low cell count flag: enough cells to score

What is on record for Or2aj6 [SID315480577]?
p65 translocation robust z-score: 1.24; nuclear/cytoplasmic p65 ratio, rep 1: 1.7; nuclear/cytoplasmic p65 ratio, rep 2: 1.67; low cell count flag: enough cells to score

What is on record for Sntn [SID315478211]?
p65 translocation robust z-score: 2.2; nuclear/cytoplasmic p65 ratio, rep 1: 1.68; nuclear/cytoplasmic p65 ratio, rep 2: 1.82; low cell count flag: enough cells to score

With Htr7 [SID315467348], what does the deposit list?
p65 translocation robust z-score: -0.15; nuclear/cytoplasmic p65 ratio, rep 1: 1.47; nuclear/cytoplasmic p65 ratio, rep 2: 1.58; low cell count flag: enough cells to score

For Apol10a [SID315479808], what does the deposit list?
p65 translocation robust z-score: 0.18; nuclear/cytoplasmic p65 ratio, rep 1: 1.67; nuclear/cytoplasmic p65 ratio, rep 2: 1.61; low cell count flag: enough cells to score

How did the screen score Adamts3 [SID315481569]?
p65 translocation robust z-score: -0.18; nuclear/cytoplasmic p65 ratio, rep 1: 1.36; nuclear/cytoplasmic p65 ratio, rep 2: 1.41; low cell count flag: enough cells to score

2 entries from above, ordered by “nuclear/cytoplasmic p65 ratio, rep 2”, highest first:
Or2aj6 [SID315480577] → p65 translocation robust z-score = 1.24; nuclear/cytoplasmic p65 ratio, rep 1 = 1.7; nuclear/cytoplasmic p65 ratio, rep 2 = 1.67; low cell count flag = enough cells to score
Farp2 [SID315478560] → p65 translocation robust z-score = 0.37; nuclear/cytoplasmic p65 ratio, rep 1 = 1.6; nuclear/cytoplasmic p65 ratio, rep 2 = 1.34; low cell count flag = enough cells to score
